Experimental data from the supplement of paper PMC7052299.
Some of the results follow. Most values come without repeats; read them as rough.

Test system: Danio rerio embryo (th-expressing DA/NA neurons)
Experiment: percentage of embryos with altered th expression (decrease or increase vs DMSO control) in brain region; higher = more embryos with altered dopaminergic/noradrenergic marker expression; extreme values may be limits of the assay
Settings: treatment window: 24-72 hpf, fixed 96 hpf
Description: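 Primary screen in zebrafish embryos (AB/TL). Embryos were treated with each compound at 1, 3, 10 or 30 µM in E3/PTU with 1% DMSO from 24 to 72 hpf, washed out, and fixed at 96 hpf. th (tyrosine hydroxylase) expression was scored by whole-mount in situ hybridization per DA/NA brain region (strong decrease, decrease, normal, increase, strong increase), with 7-16 embryos per treatment and no independent replicates. The value is the percentage of scored embryos whose th expression was altered (decrease or increase) relative to DMSO controls.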

Measured: percentage of embryos with altered th expression

COc1cc(C#N)ccc1S(=O)(=O)Nc1ccc2c(c1)cc(C)c(=O)n2C
0%: 1 µM, brain region: DC1 | 1 µM, brain region: DC2 | 1 µM, brain region: DC3 | 1 µM, brain region: DC 4,5,6 | 1 µM, brain region: LC | 1 µM, brain region: MO | 1 µM, brain region: Pretectum | 1 µM, brain region: telencephalon | 3 µM, brain region: DC1 | 3 µM, brain region: DC2 | 3 µM, brain region: DC3 | 3 µM, brain region: DC 4,5,6 | 3 µM, brain region: LC | 3 µM, brain region: MO | 3 µM, brain region: Pretectum | 3 µM, brain region: telencephalon | 10 µM, brain region: DC1 | 10 µM, brain region: DC2 | 10 µM, brain region: DC3 | 10 µM, brain region: DC 4,5,6 | 10 µM, brain region: LC | 10 µM, brain region: MO | 10 µM, brain region: Pretectum | 10 µM, brain region: telencephalon | 30 µM, brain region: DC1 | 30 µM, brain region: DC2 | 30 µM, brain region: DC3 | 30 µM, brain region: DC 4,5,6 | 30 µM, brain region: LC | 30 µM, brain region: MO | 30 µM, brain region: Pretectum | 30 µM, brain region: telencephalon
